Measurements: patent publication US20230002757A1
These are yes or no findings as the source states them, for the method shown. Some binding calls cover weakened binding; strength is not graded here. Each block holds one binder with its values, some of them ahead of it.

Protein sequences, listed by entry. Tags and fused reporters are not part of them. Lines headed by an entry give the natural chain unless they say otherwise; changes in a name come on top. Chains listed by the source or under a name are the forms on record and can include a tag or linker. Residues count along the entry.
MSLN epitope domain 1 (Q13421, residues 296-390): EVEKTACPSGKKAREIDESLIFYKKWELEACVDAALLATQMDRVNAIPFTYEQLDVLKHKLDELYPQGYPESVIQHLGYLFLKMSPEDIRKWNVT
mesothelin (MSLN), full length (Q13421, form named): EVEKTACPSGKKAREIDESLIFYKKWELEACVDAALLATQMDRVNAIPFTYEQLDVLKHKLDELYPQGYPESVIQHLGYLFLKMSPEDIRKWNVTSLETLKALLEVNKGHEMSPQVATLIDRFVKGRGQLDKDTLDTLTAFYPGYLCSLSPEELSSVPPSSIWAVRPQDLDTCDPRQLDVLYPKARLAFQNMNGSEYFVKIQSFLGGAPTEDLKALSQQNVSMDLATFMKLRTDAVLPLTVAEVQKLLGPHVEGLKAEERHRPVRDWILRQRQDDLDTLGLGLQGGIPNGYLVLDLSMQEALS
MSLN epitope domain 2 (Q13421, form named): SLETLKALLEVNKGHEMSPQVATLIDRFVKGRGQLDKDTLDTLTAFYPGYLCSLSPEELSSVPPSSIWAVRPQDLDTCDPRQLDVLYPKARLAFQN
UniProt Q02223: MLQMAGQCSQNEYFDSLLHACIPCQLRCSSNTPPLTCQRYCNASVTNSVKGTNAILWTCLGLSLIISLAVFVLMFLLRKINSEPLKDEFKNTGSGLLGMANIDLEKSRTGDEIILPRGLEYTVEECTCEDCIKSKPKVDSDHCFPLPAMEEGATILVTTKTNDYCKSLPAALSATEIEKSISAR
BCMA-His: residues 1-54 of Q02223

Experiments:
MSLN epitope domain 1 = MSLN epitope domain 1 (UniProt Q13421); test: ELISA, supernatant
[1] = target: mesothelin (MSLN), full length (UniProt Q13421); test: ELISA, supernatant
BCMA-Fc (human) = BCMA-Fc (human) (UniProt Q02223); test: ELISA
BCMA-His (human) = BCMA-His (human) (UniProt Q02223); test: ELISA
BCMA on RPMI8226 cells = BCMA on RPMI8226 cells (UniProt Q02223); test: flow cytometry
MSLN epitope domain 2 = MSLN epitope domain 2 (UniProt Q13421); test: ELISA, supernatant

B1: NBL501#008 (VHH)
VHH: QVQLVESGGGLVQAGGSLRLSCVASGIVFRLNAMGWFRQAPGRERELVATIASGGWAYYGDTMSGRVTISRDNDKNTLYLEMNSLKPEDSAMYYCSAGGARPHSWGQGTQVTVSS
- binding (MSLN epitope domain 1): binds
- binding [1]: binds

B4: NBL501#002 (VHH)
VHH: QVQLVESGGGLVQAGGSLRLSCAASISIRRINAMGWYRQAPGKERELVAVISSPNKTLYADSVKGRFTISKDNYTNTLYLQMNSLKPEDTAMYYCSAWRIGVDTTDYYGQGTQVTVSS
- binding (MSLN epitope domain 1): binds
- binding [1]: binds

B5: NBL501#004 (VHH)
VHH: EVQVVESGGGLVQAGGSLRLSCVPSGSISSIYAMGWYRQALGPERELVAAQTLGGGTYYANPVKGRFTIYRDNDKNTLYLQMNNLKPEDTAMYYCATPGEHWGSSDVTNWGQGTQVTVSS
- binding (MSLN epitope domain 1): binds
- binding [1]: binds

The remaining lines, values ahead:

- binding (BCMA-Fc (human)): binds
- binding (BCMA-His (human)): binds
- binding (BCMA on RPMI8226 cells): binds
B2: NBL507-A1L1-P1R2-1A1-(1)-PME207-SEQF_A01 (VHH)
VHH: EVQLVESGGGLVQPGGSLRLSCAASGFTFRSSAMSWARQAPGKGLEWVSDIYPDGRTDYADSIKGRFTMSRDNAKNTVYLLMDSLKPEDTAVYHCQVGRYVSGVYYQPRGQGTQVTVSS

- binding (MSLN epitope domain 2): binds
- binding [1]: binds
B3: NBL501#009 (VHH)
VHH: EVQVVESGGGLVQAGGSLRLSCVASGFTFSVAAMRWYRQAPGKQREWVASAFSDGNLHYEDFVKGRFTISRDDAKNTLYLQMDSLKPEDTAVYYCNAGTPSRAYWGQGTQVTVSS

- binding (BCMA-Fc (human)): binds
- binding (BCMA-His (human)): binds
- binding (BCMA on RPMI8226 cells): binds
B6: NBL507-A1L1-P1R2-1D2-(9)-PME207-SEQF_A02 (VHH)
VHH: QVQLVESGGGLVQPGGSLRLSCAASGFTFSSSAMSWARQAPGKGLECVSDIYPDGTSSYADSMKGRFTISRDNTRNTMYLQMNVLKPEDTATYYCVIGRGGYAMGDRRLRGQGTQVTVSS
